Measured values published in PubChem BioAssay AID1487 (National Center for Advancing Translational Sciences (NCATS), 2009).
The other results are listed elsewhere or left out. Shown are side measurements of this screen, not its main read-out; they come without a call. The list favours compounds with an active or inconclusive main result. Potencies come from curve fits of mixed quality, noted in brackets.

Test: qHTS Assay for Modulators of Lamin A Splicing
Settings: HeLa LMNA splicing GFP/RFP minigene ratio, 48 h
Outline: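 S3 HeLa stable clones carrying a lamin A-EGFP splicing minigene plus DsRed2 were seeded at 600 cells/well in Opti-MEM with 2% FBS, pin-dosed and incubated 48 h at 37°C. Acumen cytometry (488 nm) gave the GFP/RFP total-intensity ratio.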

[1] = measured here: RFP viability control channel
[2] = measured here: GFP splicing reporter channel

Compound | AC50 [1] | AC50 [2]
Cc1ccc(S(=O)(=O)NCC(=O)OCC(=O)Nc2ccccc2OC(F)F)cc1 | 14.1 µM [rising, partial curve, poor fit] | 
CCc1cccc2c(C(=O)COC(=O)c3cccc(S(=O)(=O)N(C)C4CCCCC4)c3)c[nH]c12 | 31.6 µM [rising, single point] | 
CS(=O)(=O)Nc1cccc(-c2ccc3ncnc(N4CCOCC4)c3c2)c1 | 20 µM [falling, partial curve, poor fit] | 14.1 µM [falling, partial curve]
Cc1nn(-c2cccc(Cl)c2)c2c1C(c1cccnc1)C(C#N)=C(N)O2 (stereo not given) | 22.4 µM [rising, partial curve] | 
O=C(CC1N=C2c3ccccc3N=C(SCC(=O)Nc3ccc(F)cc3)N2C1=O)NCc1ccco1 (stereo not given) | 1.12 µM [falling, single point] | 
COc1cc(Nc2ncc3c(n2)CCN(Cc2ccc(OC(C)C)c(OC)c2)C3)cc(OC)c1 |  | 35.5 µM [falling, partial curve, poor fit]
CCOC(=O)c1[nH]c2ccc(Br)cc2c1NC(=O)CCN1CCCC(C)C1 (stereo not given) | 11.2 µM [rising, partial curve] | 15.8 µM [rising, single point]
O=C(Nc1c(C(=O)NCc2ccco2)cnn1-c1ccccc1)c1cccc(F)c1 |  | 8.91 µM [rising, partial curve]
CCc1nn2c(=O)cc(COC(=O)c3ccc(NC(=O)COc4ccccc4C)cc3)nc2s1 |  | 0.0631 µM [falling, full curve, poor fit]
Cc1nn(C)c(C)c1S(=O)(=O)N1CCC(CO)(Cc2ccc(Cl)cc2)CC1 | 0.447 µM [falling, full curve, poor fit] | 
COc1ccc(NC(=O)c2csnn2)cc1Cl | 0.0447 µM [falling, full curve] | 
COc1ccc(CCNc2nc(C)nc3c2oc2ccccc23)cc1OC | 2.51 µM [rising, single point] | 2 µM [rising, full curve]
Cc1ccccc1OCc1n[nH]c(=S)n1Cc1ccccc1 | 31.6 µM [rising, partial curve] | 17.8 µM [rising, partial curve]
Clc1ccc2c(c1)C1=C(C(c3ccncc3)O2)C(c2ccc(Br)cc2)n2ncnc2N1 (stereo not given) | 12.6 µM [falling, single point] | 3.98 µM [falling, full curve]
CN(C)c1cccc2c1c(NC(=O)Nc1ccc(Cl)cc1Cl)nn2C |  | 0.316 µM [rising, full curve, poor fit]
CCOc1ccc(NC(=O)c2cc3cc(C)ccc3n2C)cc1 | 0.0141 µM [falling, full curve, poor fit] | 
CCOc1ccc(NCc2nnc(SCC(=O)Nc3cc(C)on3)n2-c2ccccc2OC)cc1 | 14.1 µM [rising, single point] | 
COCCN1C(=O)N[C@@H](c2ccccc2)C(C(C)=O)=C1C | 35.5 µM [rising, single point] | 

Compound | AC50 [1] | AC50 [2]
CC(C)(C)NC(=O)CSc1nc2ccc(Nc3nc(N4CCOCC4)nc(N4CCOCC4)n3)cc2s1 | 35.5 µM [falling, single point] | 35.5 µM [falling, single point]
COc1ccc(CCn2c(C)nc3c(c(=O)c4ccccc4n3C)c2=O)cc1 | 0.398 µM [rising, full curve, poor fit] | 0.708 µM [rising, partial curve]
CCC(c1nnnn1CS(=O)(=O)c1ccc(C)cc1)N1CCN(c2nc3ccccc3s2)CC1 (stereo not given) | 7.08 µM [rising, partial curve] | 
N#Cc1c(NC(=O)c2cc(C3CC3)on2)sc2c1CCC2 | 2.82 µM [rising, single point] | 
Cc1cc(NC(=O)c2ccccc2F)ccc1-c1nc2ccccc2s1 | 5.62 µM [falling, partial curve, poor fit] | 
Cc1ccc(-n2cnc3cc(C(=O)NCCC4=CCCCC4)ccc32)c(C)c1 |  | 35.5 µM [falling, single point]
NC(=S)n1[nH]c(-c2ccc([N+](=O)[O-])cc2)c(N=Nc2ccccc2[N+](=O)[O-])c1=O | 1 µM [rising, single point] | 
O=C(/C=C/c1ccco1)NCc1ccc(F)cc1 | 0.00794 µM [falling, full curve, poor fit] | 0.00794 µM [falling, full curve, poor fit]
O=C(CSc1nnc(-c2ccc(Cl)cc2)n1-c1ccc(Cl)cc1)N/N=C/c1ccco1 | 17.8 µM [falling, single point] | 
CCOC(=O)Cc1ccc(NC(=O)N(Cc2ccc(OC)cc2)C2CCN(C(C)=O)CC2)cc1 |  | 35.5 µM [rising, partial curve]
O=C(/C=C/c1ccc(F)cc1)N1CCCN(C(=O)/C=C/c2ccc(F)cc2)CC1 | 35.5 µM [rising, single point] | 
CCOC(=O)CSc1nnc(-c2cccnc2)n1C | 0.158 µM [falling, full curve, poor fit] | 0.316 µM [falling, full curve, poor fit]
CCc1ccc(NC(=O)c2sc(-n3nc(C)c(CCC(C)C)c3C)nc2C)cc1 | 12.6 µM [rising, partial curve, poor fit] | 
Cc1cc(C(=O)COc2ccccc2Cl)c(C)n1-c1ccc2c(c1)OCO2 | 12.6 µM [rising, partial curve] | 7.94 µM [rising, partial curve, poor fit]
O=C(NC1CC(=O)N(c2ccc(F)cc2)C1)C1CCCC1 (stereo not given) | 3.55 µM [falling, partial curve, poor fit] | 
O=C(CN1CCN(C(=O)c2ccco2)CC1)Nc1ccc(Cl)c(C(F)(F)F)c1 | 17.8 µM [rising, single point] | 
CCN(CC)S(=O)(=O)c1cccc(-c2nnc(SCCOc3ccc(Cl)cc3)o2)c1 | 6.31 µM [rising, full curve] | 

Exported tab-delimited: three of the compounds above.
Compound	AC50 [1]	AC50 [2]
CCc1nn2c(=O)cc(COC(=O)c3ccc(NC(=O)COc4ccccc4C)cc3)nc2s1		0.0631 µM [falling, full curve, poor fit]
COc1ccc(CCn2c(C)nc3c(c(=O)c4ccccc4n3C)c2=O)cc1	0.398 µM [rising, full curve, poor fit]	0.708 µM [rising, partial curve]
O=C(/C=C/c1ccco1)NCc1ccc(F)cc1	0.00794 µM [falling, full curve, poor fit]	0.00794 µM [falling, full curve, poor fit]
